Reference: patent US9730449B2, “Thiazole compound and its use in pest control” (Sumitomo Chemical Company, Limited, priority 2014, dated 2017)
Some entries share one result that the patent states for a list of compounds.

Tests used:
[1] = tested on: brown planthoppers (Nilaparvata lugens); assay: Test Example 3: rice seedling foliar treatment, brown planthopper controlling value; assay type: in vivo; conditions: 500 ppm, 10 ml scattered on rice seedlings; third- or fourth-instar larvae; 25° C.; after 6 days
[2] = tested on: cotton aphids (Aphis gossypii); assay: Test Example 4: cucumber seedling foliar treatment, cotton aphid controlling value; assay type: in vivo; conditions: 500 ppm, 20 ml scattered on cucumber seedlings inoculated with aphids; 6 days after the scattering

| Structure (SMILES) | Controlling value [1] | Controlling value [2] |
| --- | --- | --- |
| CSc1cnc(OCc2ccccc2SC)s1 [Compound 1a-50] | ≥ 90% |  |
| CCSc1cnc(OCc2ccccc2CC)s1 [Compound 1a-202] | ≥ 90% |  |
| CSc1cnc(OCc2cccc(F)c2F)s1 [Compound 1a-54] |  | ≥ 90% |
| COc1ccc(C)c(COc2ncc(SC)s2)c1 [Compound 1a-86] | ≥ 90% |  |
| CSc1cnc(OCc2ccccc2C(F)(F)F)s1 [Compound 1a-48] |  | ≥ 90% |
| CCCc1ccccc1COc1ncc(SC)s1 [Compound 1a-51] |  | ≥ 90% |
| CSc1cnc(OCc2ccsc2)s1 [Compound 1a-37] | ≥ 90% | ≥ 90% |
| CSc1cnc(OCc2ccccc2C(C)C)s1 [Compound 1a-52] |  | ≥ 90% |
| CSc1cnc(OCc2ccc(F)cc2C)s1 [Compound 1a-18] | ≥ 90% |  |
| CCSc1cnc(OCc2ccccc2C)s1 [Compound 1a-201, 2-(2-methylbenzyloxy)-5-ethylthiothiazole] | ≥ 90% |  |
| CSc1cnc(OCc2c(F)cccc2F)s1 [Compound 1a-57] |  | ≥ 90% |
| COc1c(C)cccc1COc1ncc(SC)s1 [Compound 1a-28] | ≥ 90% |  |
| COc1ccccc1COc1ncc(SC)s1 [Compound 1a-1, 2-(2-methoxybenzyloxy)-5-methylthiothiazole] | ≥ 90% |  |
| CSc1cnc(OCc2c(C)cccc2Cl)s1 [Compound 1a-81] | ≥ 90% |  |
| CSc1cnc(OCc2cc(Cl)ccc2Cl)s1 [Compound 1a-72] |  | ≥ 90% |
